Laboratory results: PubChem BioAssay AID1224830 (NIAID, 2016)
Purpose: 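Regulators of TLR4 signalling towards TNF-alpha in macrophage-like cells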 (primary screen). Cells: human THP-1 monocytic leukaemia cells, TNF dual-luciferase reporter clone, PMA-differentiated to macrophage-like cells. Reagents: siRNA pool against human genes, 50 nM. Time to read-out: LPS for 4 h, given about 3 days after siRNA transfection. Treatment: bacterial LPS (TLR4 ligand), 10 ng/ml. Detection: 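Ratio of firefly to renilla light, scaled to the plate median and expressed as a robust z-score per replicate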. Direction: TNF reporter robust z-score: higher = stronger TNF reporter response to LPS. Hit rule: 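Each well counts as active if its z-score is over 2.8 or under -1.5; controls are left without a call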.
In all, the deposit lists about 18,000 reagents; this is an unselected part. Over the whole deposit, about 2,900 (16%) got an active call. 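Calls are made per well; low scores hint the gene aids the LPS response, high scores that it dampens it.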 A number with no mark means an inactive call. Repeated entries: four replicate wells of each siRNA pool. Reagent sequences are not shown.

The first 4 records as a preview:
no.	gene symbol	TNF reporter robust z-score
1	SPRR2B (small proline rich protein 2B)	0.8
2	SPRR2B (small proline rich protein 2B)	1.94
3	SPRR2B (small proline rich protein 2B)	1.61
4	SPRR2B (small proline rich protein 2B)	2.7

The list itself, repeating the preview:
no.	gene symbol	TNF reporter robust z-score
1	SPRR2B (small proline rich protein 2B)	0.8
2	SPRR2B (small proline rich protein 2B)	1.94
3	SPRR2B (small proline rich protein 2B)	1.61
4	SPRR2B (small proline rich protein 2B)	2.7
5	SWAP70 (switching B cell complex subunit SWAP70)	-0.35
6	SWAP70 (switching B cell complex subunit SWAP70)	-0.39
7	SWAP70 (switching B cell complex subunit SWAP70)	-1.17
8	SWAP70 (switching B cell complex subunit SWAP70)	-0.48
9	KCNC2 (potassium voltage-gated channel subfamily C member 2)	-0.44
10	KCNC2 (potassium voltage-gated channel subfamily C member 2)	0.11
11	KCNC2 (potassium voltage-gated channel subfamily C member 2)	0.64
12	KCNC2 (potassium voltage-gated channel subfamily C member 2)	0.3
13	TUT4 (terminal uridylyl transferase 4)	0.06
14	TUT4 (terminal uridylyl transferase 4)	-0.33
15	TUT4 (terminal uridylyl transferase 4)	0.51
16	TUT4 (terminal uridylyl transferase 4)	0.45
17	GK (glycerol kinase)	1.09
18	GK (glycerol kinase)	1.13
19	GK (glycerol kinase)	1.36
20	GK (glycerol kinase)	1.51
21	MAP6D1 (MAP6 domain containing 1)	0.35
22	MAP6D1 (MAP6 domain containing 1)	-0.17
23	MAP6D1 (MAP6 domain containing 1)	-0.14
24	MAP6D1 (MAP6 domain containing 1)	-0.23
25	ZNRF2 (zinc and ring finger 2)	1.09
26	ZNRF2 (zinc and ring finger 2)	0.28
27	ZNRF2 (zinc and ring finger 2)	49.6 (active)
28	ZNRF2 (zinc and ring finger 2)	1.05
29	ARHGAP30 (Rho GTPase activating protein 30)	-1.24
30	ARHGAP30 (Rho GTPase activating protein 30)	-0.81
31	ARHGAP30 (Rho GTPase activating protein 30)	-0.67
32	ARHGAP30 (Rho GTPase activating protein 30)	-0.68
33	NME1 (NME/NM23 nucleoside diphosphate kinase 1)	-0.17
34	NME1 (NME/NM23 nucleoside diphosphate kinase 1)	3.43 (active)
35	NME1 (NME/NM23 nucleoside diphosphate kinase 1)	-0.75
36	NME1 (NME/NM23 nucleoside diphosphate kinase 1)	0.6
37	WDCP (WD repeat and coiled coil containing)	-0.23
38	WDCP (WD repeat and coiled coil containing)	0.68
39	WDCP (WD repeat and coiled coil containing)	0.51
40	WDCP (WD repeat and coiled coil containing)	2.69
41	FRYL (FRY like transcription coactivator)	-0.5
42	FRYL (FRY like transcription coactivator)	-0.59
43	FRYL (FRY like transcription coactivator)	0.11
44	FRYL (FRY like transcription coactivator)	-0.61
45	HAS2 (hyaluronan synthase 2)	2.24
46	HAS2 (hyaluronan synthase 2)	0.37
47	HAS2 (hyaluronan synthase 2)	0.52
48	HAS2 (hyaluronan synthase 2)	1.01
